Reference: PubChem BioAssay AID1224830 (NIAID, 2016)
This is a random part of about 18,000 deposited reagents. In the full data, about 2,900 (16%) got an active call. 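Calls are made per well; low scores hint the gene aids the LPS response, high scores that it dampens it.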 Entries without a mark were called inactive. Repeated entries: four replicate wells of each siRNA pool.

Test: 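Regulators of TLR4 signalling towards TNF-alpha in macrophage-like cells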 (primary screen)
Cell system: human THP-1 monocytic leukaemia cells, TNF dual-luciferase reporter clone, PMA-differentiated to macrophage-like cells
Knock-down reagent: siRNA pool against human genes, 50 nM
Timing: LPS for 4 h, given about 3 days after siRNA transfection
Treatment: bacterial LPS (TLR4 ligand), 10 ng/ml
Measurement: 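Ratio of firefly to renilla light, scaled to the plate median and expressed as a robust z-score per replicate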
Reading the numbers: TNF reporter robust z-score: higher = stronger TNF reporter response to LPS
Hit rule: 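Each well counts as active if its z-score is over 2.8 or under -1.5; controls are left without a call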

TCF23 (transcription factor 23)
- TNF reporter robust z-score: -0.42

TCF23 (transcription factor 23)
- TNF reporter robust z-score: 0.24

TCF23 (transcription factor 23)
- TNF reporter robust z-score: -0.19

TCF23 (transcription factor 23)
- TNF reporter robust z-score: 0.32

FGL2 (fibrinogen like 2)
- TNF reporter robust z-score: 0.02

FGL2 (fibrinogen like 2)
- TNF reporter robust z-score: 0.18

FGL2 (fibrinogen like 2)
- TNF reporter robust z-score: -0.17

FGL2 (fibrinogen like 2)
- TNF reporter robust z-score: -0.16

STAU2 (staufen double-stranded RNA binding protein 2)
- TNF reporter robust z-score: 0.48

STAU2 (staufen double-stranded RNA binding protein 2)
- TNF reporter robust z-score: 0.67

STAU2 (staufen double-stranded RNA binding protein 2)
- TNF reporter robust z-score: -0.24

STAU2 (staufen double-stranded RNA binding protein 2)
- TNF reporter robust z-score: 1.05

AP3D1 (adaptor related protein complex 3 subunit delta 1)
- TNF reporter robust z-score: -1.18

AP3D1 (adaptor related protein complex 3 subunit delta 1)
- TNF reporter robust z-score: -0.28

AP3D1 (adaptor related protein complex 3 subunit delta 1)
- TNF reporter robust z-score: -0.18

CDH24 (cadherin 24)
- TNF reporter robust z-score: -0.09

CDH24 (cadherin 24)
- TNF reporter robust z-score: -0.44

CDH24 (cadherin 24)
- TNF reporter robust z-score: -0.69

CDH24 (cadherin 24)
- TNF reporter robust z-score: 0.08

TBC1D21 (TBC1 domain family member 21)
- TNF reporter robust z-score: 0.61

TBC1D21 (TBC1 domain family member 21)
- TNF reporter robust z-score: 1.17

TBC1D21 (TBC1 domain family member 21)
- TNF reporter robust z-score: 1.01

TBC1D21 (TBC1 domain family member 21)
- TNF reporter robust z-score: 0.88

NUDT5 (nudix hydrolase 5)
- TNF reporter robust z-score: -0.61

NUDT5 (nudix hydrolase 5)
- TNF reporter robust z-score: -0.15

NUDT5 (nudix hydrolase 5)
- TNF reporter robust z-score: -0.09

NUDT5 (nudix hydrolase 5)
- TNF reporter robust z-score: 1.35

HHIP (hedgehog interacting protein)
- TNF reporter robust z-score: -0.74

HHIP (hedgehog interacting protein)
- TNF reporter robust z-score: -0.22

HHIP (hedgehog interacting protein)
- TNF reporter robust z-score: 0.13

HHIP (hedgehog interacting protein)
- TNF reporter robust z-score: -0.23

FIBCD1 (fibrinogen C domain containing 1)
- TNF reporter robust z-score: -1.76 (active)

FIBCD1 (fibrinogen C domain containing 1)
- TNF reporter robust z-score: -1.29

FIBCD1 (fibrinogen C domain containing 1)
- TNF reporter robust z-score: -1.66 (active)

FIBCD1 (fibrinogen C domain containing 1)
- TNF reporter robust z-score: -0.97

SNRNP27 (small nuclear ribonucleoprotein U4/U6.U5 subunit 27)
- TNF reporter robust z-score: 0.3

SNRNP27 (small nuclear ribonucleoprotein U4/U6.U5 subunit 27)
- TNF reporter robust z-score: -0.01

SNRNP27 (small nuclear ribonucleoprotein U4/U6.U5 subunit 27)
- TNF reporter robust z-score: -0.06

SNRNP27 (small nuclear ribonucleoprotein U4/U6.U5 subunit 27)
- TNF reporter robust z-score: 3.52 (active)

CHRNA5 (cholinergic receptor nicotinic alpha 5 subunit)
- TNF reporter robust z-score: -1.28

CHRNA5 (cholinergic receptor nicotinic alpha 5 subunit)
- TNF reporter robust z-score: 0.16

CHRNA5 (cholinergic receptor nicotinic alpha 5 subunit)
- TNF reporter robust z-score: 0.8

CHRNA5 (cholinergic receptor nicotinic alpha 5 subunit)
- TNF reporter robust z-score: -1.06

H2AC19 (H2A clustered histone 19)
- TNF reporter robust z-score: 0.35

H2AC19 (H2A clustered histone 19)
- TNF reporter robust z-score: 0.47

H2AC19 (H2A clustered histone 19)
- TNF reporter robust z-score: 0.11

H2AC19 (H2A clustered histone 19)
- TNF reporter robust z-score: 0.55
